Test results published in the supplement of paper PMC7661543.
The effect of the compound repeats well; differences between the knockouts mostly do not.

Tested on: BT-20
Test: relative cell number vs DMSO control (72 h) (% of DMSO); higher = less growth inhibition (more cells)
Procedure: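 QMAP-Seq: a pool of 5 breast cancer cell lines (ZR-75-1, SKBR3, HCC-38, MDA-MB-231, BT-20), each carrying 12 doxycycline-inducible Cas9 sgRNA perturbations (11 knockouts plus non-targeting sgNT), was treated with compounds for 72 h at four 10-fold doses (10 nM-10 uM or 1 nM-1 uM range). Barcodes were amplified and sequenced, and cell number was interpolated from 293T spike-in standard curves. The result is expressed as % of the median of DMSO wells. Two biological replicates.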

CCOc1ccccc1-n1c(C(C)N2CCN(C(=O)COc3ccc(Cl)cc3)CC2)nc2ccccc2c1=O (configuration not stated) [Erastin]
Conditions | relative cell number
sgRNA knockout: sgATF3, 10 nM | 94.9
sgRNA knockout: sgATF3, 100 nM | 93.5
sgRNA knockout: sgATF3, 1000 nM | 86.3
sgRNA knockout: sgATF3, 10000 nM | 51
sgRNA knockout: sgATF4, 10 nM | 89.4
sgRNA knockout: sgATF4, 100 nM | 96.52
sgRNA knockout: sgATF4, 1000 nM | 83.7
sgRNA knockout: sgATF4, 10000 nM | 54.4
sgRNA knockout: sgATF6, 10 nM | 89
sgRNA knockout: sgATF6, 100 nM | 97.5
sgRNA knockout: sgATF6, 1000 nM | 87
sgRNA knockout: sgATF6, 10000 nM | 53.4
sgRNA knockout: sgATG7, 10 nM | 99.6
sgRNA knockout: sgATG7, 100 nM | 94.3
sgRNA knockout: sgATG7, 1000 nM | 90.9
sgRNA knockout: sgATG7, 10000 nM | 62.1
sgRNA knockout: sgERN1, 10 nM | 90.9
sgRNA knockout: sgERN1, 100 nM | 95.2
sgRNA knockout: sgERN1, 1000 nM | 90.3
sgRNA knockout: sgERN1, 10000 nM | 55.43
sgRNA knockout: sgHSF1, 10 nM | 96.3
sgRNA knockout: sgHSF1, 100 nM | 111
sgRNA knockout: sgHSF1, 1000 nM | 93.1
sgRNA knockout: sgHSF1, 10000 nM | 51.9
sgRNA knockout: sgHSF2, 10 nM | 89.9
sgRNA knockout: sgHSF2, 100 nM | 92.1
sgRNA knockout: sgHSF2, 1000 nM | 83.8
sgRNA knockout: sgHSF2, 10000 nM | 48.3
sgRNA knockout: sgKEAP1, 10 nM | 95.3
sgRNA knockout: sgKEAP1, 100 nM | 102
sgRNA knockout: sgKEAP1, 1000 nM | 97.9
sgRNA knockout: sgKEAP1, 10000 nM | 69.6
sgRNA knockout: sgNFE2L2, 10 nM | 92.4
sgRNA knockout: sgNFE2L2, 100 nM | 106
sgRNA knockout: sgNFE2L2, 1000 nM | 79.7
sgRNA knockout: sgNFE2L2, 10000 nM | 50.47
sgRNA knockout: sgSLC35F2, 10 nM | 88.6
sgRNA knockout: sgSLC35F2, 100 nM | 90.4
sgRNA knockout: sgSLC35F2, 1000 nM | 89.4
sgRNA knockout: sgSLC35F2, 10000 nM | 52
sgRNA knockout: sgXBP1, 10 nM | 96.2
sgRNA knockout: sgXBP1, 100 nM | 90.9
sgRNA knockout: sgXBP1, 1000 nM | 88.4
sgRNA knockout: sgXBP1, 10000 nM | 59.7

COC(=O)Nc1nc2cc(C(=O)c3ccccc3)ccc2[nH]1 [Mebendazole]
Conditions | relative cell number
sgRNA knockout: sgATF3, 10 nM | 85.7
sgRNA knockout: sgATF3, 100 nM | 95.8
sgRNA knockout: sgATF3, 1000 nM | 24.5
sgRNA knockout: sgATF3, 10000 nM | 30.2
sgRNA knockout: sgATF4, 10 nM | 98.2
sgRNA knockout: sgATF4, 100 nM | 85
sgRNA knockout: sgATF4, 1000 nM | 23.8
sgRNA knockout: sgATF4, 10000 nM | 28.1
sgRNA knockout: sgATF6, 10 nM | 88.4
sgRNA knockout: sgATF6, 100 nM | 90.4
sgRNA knockout: sgATF6, 1000 nM | 25.9
sgRNA knockout: sgATF6, 10000 nM | 20.7
sgRNA knockout: sgATG7, 10 nM | 86.4
sgRNA knockout: sgATG7, 100 nM | 84
sgRNA knockout: sgATG7, 1000 nM | 21
sgRNA knockout: sgATG7, 10000 nM | 26.3
sgRNA knockout: sgERN1, 10 nM | 86.2
sgRNA knockout: sgERN1, 100 nM | 79.2
sgRNA knockout: sgERN1, 1000 nM | 27.8
sgRNA knockout: sgERN1, 10000 nM | 27.5
sgRNA knockout: sgHSF1, 10 nM | 92.5
sgRNA knockout: sgHSF1, 100 nM | 78.66
sgRNA knockout: sgHSF1, 1000 nM | 22.2
sgRNA knockout: sgHSF1, 10000 nM | 27.5
sgRNA knockout: sgHSF2, 10 nM | 93.8
sgRNA knockout: sgHSF2, 100 nM | 90.7
sgRNA knockout: sgHSF2, 1000 nM | 32.3
sgRNA knockout: sgHSF2, 10000 nM | 24.5
sgRNA knockout: sgKEAP1, 10 nM | 84.4
sgRNA knockout: sgKEAP1, 100 nM | 78.5
sgRNA knockout: sgKEAP1, 1000 nM | 25.4
sgRNA knockout: sgKEAP1, 10000 nM | 25.4
sgRNA knockout: sgNFE2L2, 10 nM | 96.2
sgRNA knockout: sgNFE2L2, 100 nM | 87.4
sgRNA knockout: sgNFE2L2, 1000 nM | 33.6
sgRNA knockout: sgNFE2L2, 10000 nM | 28.7
sgRNA knockout: sgSLC35F2, 10 nM | 104
sgRNA knockout: sgSLC35F2, 100 nM | 106
sgRNA knockout: sgSLC35F2, 1000 nM | 30.1
sgRNA knockout: sgSLC35F2, 10000 nM | 27.4
sgRNA knockout: sgXBP1, 10 nM | 97.5
sgRNA knockout: sgXBP1, 100 nM | 82
sgRNA knockout: sgXBP1, 1000 nM | 24.4
sgRNA knockout: sgXBP1, 10000 nM | 30.9

CC(C)[C@]12O[C@H]1[C@@H]1O[C@]13[C@]1(O[C@H]1C[C@H]1C4=C(CC[C@@]13C)C(=O)OC4)[C@@H]2O [Triptolide]
Conditions | relative cell number
sgRNA knockout: sgATF3, 1 nM | 114
sgRNA knockout: sgATF3, 10 nM | 84.2
sgRNA knockout: sgATF3, 100 nM | 37.6
sgRNA knockout: sgATF3, 1000 nM | 24.8
sgRNA knockout: sgATF4, 1 nM | 111
sgRNA knockout: sgATF4, 10 nM | 102
sgRNA knockout: sgATF4, 100 nM | 39.6
sgRNA knockout: sgATF4, 1000 nM | 27.6
sgRNA knockout: sgATF6, 1 nM | 104
sgRNA knockout: sgATF6, 10 nM | 74.9
sgRNA knockout: sgATF6, 100 nM | 30.2
sgRNA knockout: sgATF6, 1000 nM | 20.6
sgRNA knockout: sgATG7, 1 nM | 96.9
sgRNA knockout: sgATG7, 10 nM | 77.6
sgRNA knockout: sgATG7, 100 nM | 36.9
sgRNA knockout: sgATG7, 1000 nM | 24.55
sgRNA knockout: sgERN1, 1 nM | 97.2
sgRNA knockout: sgERN1, 10 nM | 80.386
sgRNA knockout: sgERN1, 100 nM | 31.4
sgRNA knockout: sgERN1, 1000 nM | 28.9
sgRNA knockout: sgHSF1, 1 nM | 99.2
sgRNA knockout: sgHSF1, 10 nM | 86.9
sgRNA knockout: sgHSF1, 100 nM | 31.2
sgRNA knockout: sgHSF1, 1000 nM | 25.6
sgRNA knockout: sgHSF2, 1 nM | 93.8
sgRNA knockout: sgHSF2, 10 nM | 77.5
sgRNA knockout: sgHSF2, 100 nM | 30.8
sgRNA knockout: sgHSF2, 1000 nM | 20.9
sgRNA knockout: sgKEAP1, 1 nM | 103
sgRNA knockout: sgKEAP1, 10 nM | 89.2
sgRNA knockout: sgKEAP1, 100 nM | 32.5
sgRNA knockout: sgKEAP1, 1000 nM | 25.9
sgRNA knockout: sgNFE2L2, 1 nM | 117
sgRNA knockout: sgNFE2L2, 10 nM | 76.4
sgRNA knockout: sgNFE2L2, 100 nM | 36.2
sgRNA knockout: sgNFE2L2, 1000 nM | 25.7
sgRNA knockout: sgSLC35F2, 1 nM | 112
sgRNA knockout: sgSLC35F2, 10 nM | 90.1
sgRNA knockout: sgSLC35F2, 100 nM | 31.6
sgRNA knockout: sgSLC35F2, 1000 nM | 25.9
sgRNA knockout: sgXBP1, 1 nM | 100.66
sgRNA knockout: sgXBP1, 10 nM | 93.6
sgRNA knockout: sgXBP1, 100 nM | 34.1
sgRNA knockout: sgXBP1, 1000 nM | 23.9
